Values quoted from earlier work as cited in patent publication US11464250B2, “Natural compound sweetener and preparation method therefor” (HUNAN HUACHENG BIOTECH INC., priority 2017, dated 2022).
For at least one compound, name, drawing or mass did not settle the structure.

Details: cited from earlier work

C[C@H](CC[C@@H](O[C@@H]1O[C@H](CO[C@@H]2O[C@H](CO)[C@@H](O)[C@H](O)[C@H]2O)[C@@H](O)[C@H](O)[C@H]1O[C@@H]1O[C@H](CO)[C@@H](O)[C@H](O)[C@H]1O)C(C)(C)O)[C@H]1CC[C@@]2(C)[C@@H]3CC=C4[C@@H](CC[C@H](O[C@@H]5O[C@H](CO[C@@H]6O[C@H](CO)[C@@H](O)[C@H](O)[C@H]6O)[C@@H](O)[C@H](O)[C@H]5O)C4(C)C)[C@]3(C)[C@H](O)C[C@]12C [Mogroside V]
safety as foods: safe and non-toxic as foods
